# Assay: general procedure: solution-phase peptide synthesis
Substance,conjugation yield (conjugation step) [%],step yield (coupling step) [%]
"1-(3-(2,5-Dioxo-2,5-dihydro-1H-pyrrol-1-yl)propanamido)-N-(2-((2-(((S)-1-((2-(((S)-9-ethyl-5-fluoro-9-hydroxy-10,13-dioxo-2,3,9,10,13,15-hexahydro-1H,12H-benzo[de]pyrano[3′,4′:6,7]indolizino[1,2-b]quinolin-4-yl)amino)-2-oxoethyl)amino)-1-oxo phenylpropan-2-yl)amino)-2-oxoethyl)amino)-2-oxoethyl)-3,6,9,12,15,18,21,24-octaoxaheptacosan-27-amide",53,–
"(S)-2-(2-(2-aminoacetamido)acetamido)-N-(2-(((S)-9-ethyl-5-fluoro-9-hydroxy-10,13-dioxo-2,3,9,10,13,15-hexahydro-1H,12H-benzo[de]pyrano[3′,4′:6,7]indolizino[1,2-b]quinolin-4-yl)amino)-2-oxoethyl)-3-phenylpropanamide",–,35

# — patent US20230111996A1 (priority 2020, published 2023)
